Assay results as given in PubChem BioAssay (EPA / NIEHS).
The shares of active, inactive and inconclusive entries below differ from those in the screen. Where the call is inconclusive, the potency comes from a doubtful curve fit. The source made the active and inactive calls. Rule for the calls: active = hit-call score of the fitted dose curve at least 0.9, where 1 is the maximum; inconclusive = response in the unintended direction; inactive = score below 0.9.

Sequences of proteins named here, by UniProt entry; tags and fusion partners are left off. A change or cut given only in a name is not applied to a line headed by its entry.
UniProt P10275: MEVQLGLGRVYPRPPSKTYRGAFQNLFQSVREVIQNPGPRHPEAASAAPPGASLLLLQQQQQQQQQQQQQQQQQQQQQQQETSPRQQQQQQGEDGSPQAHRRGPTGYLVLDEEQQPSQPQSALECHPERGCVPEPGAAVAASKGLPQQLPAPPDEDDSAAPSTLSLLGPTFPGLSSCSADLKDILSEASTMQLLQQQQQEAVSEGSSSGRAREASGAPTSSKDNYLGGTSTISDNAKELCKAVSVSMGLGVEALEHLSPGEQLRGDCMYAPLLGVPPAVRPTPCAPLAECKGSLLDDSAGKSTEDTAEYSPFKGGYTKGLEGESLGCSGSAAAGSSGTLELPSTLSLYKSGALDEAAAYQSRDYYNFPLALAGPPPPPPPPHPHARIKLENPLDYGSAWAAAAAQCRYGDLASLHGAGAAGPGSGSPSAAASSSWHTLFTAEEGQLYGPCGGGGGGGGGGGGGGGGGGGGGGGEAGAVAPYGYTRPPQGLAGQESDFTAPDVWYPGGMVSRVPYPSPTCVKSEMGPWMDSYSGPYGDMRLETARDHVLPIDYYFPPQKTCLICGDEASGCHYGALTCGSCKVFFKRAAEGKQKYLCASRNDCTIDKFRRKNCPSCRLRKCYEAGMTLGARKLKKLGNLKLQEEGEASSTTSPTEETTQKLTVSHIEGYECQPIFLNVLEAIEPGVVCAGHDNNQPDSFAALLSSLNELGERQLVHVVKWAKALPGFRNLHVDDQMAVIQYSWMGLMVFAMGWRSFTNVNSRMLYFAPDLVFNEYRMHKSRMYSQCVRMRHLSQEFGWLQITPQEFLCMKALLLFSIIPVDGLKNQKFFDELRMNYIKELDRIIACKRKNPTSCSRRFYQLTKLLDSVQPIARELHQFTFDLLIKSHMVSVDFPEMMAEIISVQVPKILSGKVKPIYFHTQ

The compounds below were run against human Androgen Receptor (AR), AR (gene 367) (UniProt P10275) (assay: ATG_hAR_XSP1: Attagene TRANS-FACTORIAL Multi-Species (XSP1) HepG2 Assay for human Androgen Receptor (AR) (AID 2283785)).
Description: ATG_XSP1_multi-species_TRANS is a cell-based, multiplexed assay created by modifying the existing Attagene TRANS-FACTORIAL system to include a panel of nuclear receptors from some or all the following species: human (Homo sapiens), mouse (Mus musculus), frog (Xenopus laevis), zebrafish (Danio rerio), chicken (Gallus gallus), and turtle (Chrysemys picta). The ECOTOX-FACTORIAL format uses HepG2, a human liver cell line, with measurements taken at 24 hours after chemical dosing in a 24-well plate. Xsp1 included 3 nM 6-alpha-fluorotestosterone to partially stimulate the androgen receptor.ATG_hAR_XSP1 is one of 29 assay components measured or calculated from the ATG_XSP1_multi-species_TRANS assay. It is designed to make measurements of mRNA induction, a form of inducible reporter, as detected with fluorescence intensity signals by Reverse transcription polymerase chain reaction (RT-PCR) and Capillary electrophoresis technology.The assay endpoint ATG_hAR_XSP1 was analyzed in the positive analysis fitting direction relative to DMSO as the negative control and baseline of activity. Using a type of inducible reporter, measures of mRNA for gain-of-signal activity can be used to understand the reporter gene at the transcription factor-level as they relate to the gene AR. Furthermore, this assay endpoint can be referred to as a primary readout, because this assay has produced multiple assay endpoints where this one serves a reporter gene function. To generalize the intended target to other relatable targets, this assay endpoint is annotated to the nuclear receptor intended target family, where the subfamily is steroidal.
Human liver HepG2 cells are transiently transfected with multiple reporter transcription units (MRTUs) in 6-well plates using FuGene 6 reagent (Roche; 3 ml FuGene/1 mg DNA). The MRTU constructs are regulated by a cis-regulating element (promoter). […] A major difference between the CIS and TRANS system is that in CIS activities of endogenous TFs are measured, whereas the TRANS assay evaluates changes in activities of exogenous, chimeric NR-Gal4 proteins. […] At the end of 24 hour incubation, total RNA was isolated using TriZol reagent (Invitrogen). The isolated RNA is then reverse-transcribed using oligo(dT) primer and Mo-MLV reverse transcriptase (Invitrogen) with DNAse I (Ambion) treatment for 30 min. The one-tenth of the produced cDNA was amplified by PCR using Taq DNA polymerase (Invitrogen) and two reporter sequence-specific primers. The PCR products were fluorescently labeled by primer extension with 6-arboxyfluorescein (6-FAM) 5'-labeled reporter sequence-specific primer (2 min at 95 C, 20 s at 68 C and 10 min at 72 C) and these products were digested with 5U of HpaI (New England Biolabs) for 2h at 37 C. The fragments were purified using Qiaquick PCR columns (Qiagen), analyzed on an ABI 3130xL genetic analyzer (Applied Biosystems) with peak positions identified by using a set of X-rhodamine (ROX)-labeled MapMarker1000 molecular weight standards (BioVentures). The raw capillary electrophoresis data was processed using Attagraph software (Attagene).
CCCN(CCC)c1c([N+](=O)[O-])cc(C(F)(F)F)cc1[N+](=O)[O-] was tested, and the AC50 was inconclusive: 27.5 µM. For O=S1OCC2C(CO1)C1(Cl)C(Cl)=C(Cl)C2(Cl)C1(Cl)Cl (stereo not given), the AC50 was inconclusive: 10 µM. With O=C1C2(Cl)C3(Cl)C4(Cl)C(Cl)(Cl)C5(Cl)C3(Cl)C1(Cl)C5(Cl)C24Cl (stereo not given) the AC50 was inconclusive: 1.54 µM. In the case of C[C@]12C=CC3=C4CCC(=O)C=C4CC[C@H]3[C@@H]1CC[C@@H]2O, the AC50 is reported as active: 0.00447 µM. For CC12CC1(C)C(=O)N(c1cc(Cl)cc(Cl)c1)C2=O (stereo not given), the AC50 was inconclusive: 3.6 µM. CC1(C)CCC(=Cc2ccc(Cl)cc2)C1(O)Cn1cncn1 (stereo not given) was tested, and the AC50 was inconclusive: 2.01 µM. In the case of CC(C)Oc1cc(-n2nc(C(C)(C)C)oc2=O)c(Cl)cc1Cl, the AC50 is reported as inconclusive: 100 µM. For Oc1ccc(Cl)cc1Cc1ccccc1, the AC50 was inconclusive: 2.77 µM. With COP(=O)(OC)O/C(=C\Cl)c1cc(Cl)c(Cl)cc1Cl the AC50 was inconclusive: 44.2 µM. CO/C=C(/C(=O)OC)c1ccccc1Oc1cc(Oc2ccccc2C#N)ncn1 was tested, and the outcome was “inactive”.
